Measurements reported in PubChem BioAssay AID1259254 (NCATS, 2017).
Aim: 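Gene knock-downs that lead to re-replication, shown by excess G2 DNA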 (primary screen). System: human HCT116 colorectal cancer cells. Reagents: single siRNA against human genes. Time to read-out: 3 days. Read-out: 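Imaged Hoechst DNA stain sorts each cell into a cycle phase by DNA amount; per plate, G2 fraction set to 0% for non-targeting and 100% for GMNN siRNA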. Reading the numbers: G2 robust z-score and G2 cells, % of GMNN control: higher = more G2 cells, more excess DNA replication; raw share of cells in G2: higher = larger share of cells with G2 DNA content. Rule for the call: 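An siRNA counts as active if its G2 robust z-score lies at least 5 MADs above the screen median; here such calls match roughly 38% of GMNN control or more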.
Shown is one part, drawn at random, of about 59,000 deposited reagents. In the full data, about 1,550 (2.6%) got an active call. 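G2 share is only a proxy for re-replication; each gene was hit by three separate siRNAs, and active genes were retested.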 Raw values are not corrected between plates. Reagents against one gene are numbered here. No sequences are given here. The record does not give: the amount of reagent.

The first 2 records, ahead of the listing:
Target gene	reagent no.	G2 robust z-score	G2 cells, % of GMNN control	raw share of cells in G2 (%)	call
BAG2 (BAG cochaperone 2)	1	-0.616	-1.37	3.07	inactive
BAG2 (BAG cochaperone 2)	2	2.49	20.5	15.1	inactive

The list itself, repeating the preview:
Target gene	reagent no.	G2 robust z-score	G2 cells, % of GMNN control	raw share of cells in G2 (%)	call
BAG2 (BAG cochaperone 2)	1	-0.616	-1.37	3.07	inactive
BAG2 (BAG cochaperone 2)	2	2.49	20.5	15.1	inactive
BAG2 (BAG cochaperone 2)	3	-0.61	-1.32	2.79	inactive
HNRNPU (heterogeneous nuclear ribonucleoprotein U)	1	1.01	10	7.88	inactive
HNRNPU (heterogeneous nuclear ribonucleoprotein U)	2	4.22	32.7	18.1	inactive
HNRNPU (heterogeneous nuclear ribonucleoprotein U)	3	4.94	37.7	18.7	inactive
ABCA5 (ATP binding cassette subfamily A member 5)	1	-1.18	-5.31	4.24	inactive
ABCA5 (ATP binding cassette subfamily A member 5)	2	-0.673	-1.77	3.26	inactive
ABCA5 (ATP binding cassette subfamily A member 5)	3	-1.26	-5.92	2.17	inactive
F3 (coagulation factor III, tissue factor)	1	0.915	9.4	9.71	inactive
F3 (coagulation factor III, tissue factor)	2	3.75	29.4	14.8	inactive
F3 (coagulation factor III, tissue factor)	3	0.71	7.96	6.64	inactive
MBD5 (methyl-CpG binding domain protein 5)	1	-0.315	0.75	4.81	inactive
MBD5 (methyl-CpG binding domain protein 5)	2	-0.147	1.93	4.94	inactive
MBD5 (methyl-CpG binding domain protein 5)	3	-0.178	1.71	3.68	inactive
PRKAA2 (protein kinase AMP-activated catalytic subunit alpha 2)	1	-0.694	-1.91	4.98	inactive
PRKAA2 (protein kinase AMP-activated catalytic subunit alpha 2)	2	-0.923	-3.53	4.22	inactive
PRKAA2 (protein kinase AMP-activated catalytic subunit alpha 2)	3	3.06	24.5	12.7	inactive
CCL7 (C-C motif chemokine ligand 7)	1	2.64	21.6	12.9	inactive
CCL7 (C-C motif chemokine ligand 7)	2	1.73	15.2	9.74	inactive
CCL7 (C-C motif chemokine ligand 7)	3	0.892	9.25	7.02	inactive
PRPF6 (pre-mRNA processing factor 6)	1	0.42	5.92	5.93	inactive
PRPF6 (pre-mRNA processing factor 6)	2	0.261	4.8	8.34	inactive
PRPF6 (pre-mRNA processing factor 6)	3	2.37	19.7	10.7	inactive
EGFL6 (EGF like domain multiple 6)	1	-0.276	1.03	4.8	inactive
EGFL6 (EGF like domain multiple 6)	2	1.34	12.4	9.3	inactive
EGFL6 (EGF like domain multiple 6)	3	-0.945	-3.68	2.01	inactive
NAP1L1 (nucleosome assembly protein 1 like 1)	1	-1.12	-4.88	3.21	inactive
NAP1L1 (nucleosome assembly protein 1 like 1)	2	5.11	38.9	16	active
NAP1L1 (nucleosome assembly protein 1 like 1)	3	-0.893	-3.32	2.5	inactive
CER1 (cerberus 1, DAN family BMP antagonist)	1	-0.243	1.26	5.9	inactive
CER1 (cerberus 1, DAN family BMP antagonist)	2	0.14	3.95	5.59	inactive
CER1 (cerberus 1, DAN family BMP antagonist)	3	-0.131	2.04	4.15	inactive
IGF2 (insulin like growth factor 2)	1	-1.22	-5.61	3	inactive
IGF2 (insulin like growth factor 2)	2	0.437	6.05	7.98	inactive
IGF2 (insulin like growth factor 2)	3	-0.188	1.64	4.8	inactive
TRIM75 (tripartite motif containing 75)	1	0.194	4.33	5.39	inactive
TRIM75 (tripartite motif containing 75)	2	1.21	11.5	8.06	inactive
TRIM75 (tripartite motif containing 75)	3	0.302	5.09	6.9	inactive
RAPGEF3 (Rap guanine nucleotide exchange factor 3)	1	1.48	13.4	11.5	inactive
RAPGEF3 (Rap guanine nucleotide exchange factor 3)	2	-0.101	2.26	4.57	inactive
RAPGEF3 (Rap guanine nucleotide exchange factor 3)	3	0.887	9.21	10.1	inactive
TRIM28 (tripartite motif containing 28)	1	-0.64	-1.54	5.87	inactive
TRIM28 (tripartite motif containing 28)	2	-0.574	-1.07	5.23	inactive
TRIM28 (tripartite motif containing 28)	3	-1.07	-4.54	2.37	inactive
OR1L4 (olfactory receptor family 1 subfamily L member 4)	1	3.22	25.6	12.9	inactive
OR1L4 (olfactory receptor family 1 subfamily L member 4)	2	4.57	35.1	15.2	inactive
OR1L4 (olfactory receptor family 1 subfamily L member 4)	3	-0.491	-0.487	3.04	inactive
TCFL5 (transcription factor like 5)	1	0.299	5.07	5.21	inactive
TCFL5 (transcription factor like 5)	2	1.95	16.7	13.4	inactive
TCFL5 (transcription factor like 5)	3	3.46	27.3	14.8	inactive
SELENOO (selenoprotein O)	1	0.679	7.75	7	inactive
SELENOO (selenoprotein O)	2	-0.277	1.02	5.85	inactive
SELENOO (selenoprotein O)	3	-0.927	-3.55	3.47	inactive
ASPHD2 (aspartate beta-hydroxylase domain containing 2)	1	0.15	4.03	5.69	inactive
ASPHD2 (aspartate beta-hydroxylase domain containing 2)	2	-0.677	-1.8	4.9	inactive
ASPHD2 (aspartate beta-hydroxylase domain containing 2)	3	-0.0232	2.8	5.34	inactive
MARS1 (methionyl-tRNA synthetase 1)	1	0.459	6.2	7.76	inactive
MARS1 (methionyl-tRNA synthetase 1)	2	2.74	22.2	10.5	inactive
MARS1 (methionyl-tRNA synthetase 1)	3	9.87	72.4	34.2	active
KDM3A (lysine demethylase 3A)	1	-0.0467	2.64	3.72	inactive
KDM3A (lysine demethylase 3A)	2	-0.76	-2.38	4.83	inactive
KDM3A (lysine demethylase 3A)	3	0.48	6.35	5.63	inactive
INSIG2 (insulin induced gene 2)	1	-0.244	1.25	3.65	inactive
INSIG2 (insulin induced gene 2)	2	-0.181	1.69	4.5	inactive
INSIG2 (insulin induced gene 2)	3	-0.494	-0.505	4.36	inactive
CHGB (chromogranin B)	1	2.44	20.1	12.1	inactive
CHGB (chromogranin B)	2	-0.289	0.935	5.33	inactive
CHGB (chromogranin B)	3	1.05	10.4	7.67	inactive
NIFK (nucleolar protein interacting with the FHA domain of MKI67)	1	1.47	13.3	9.72	inactive
NIFK (nucleolar protein interacting with the FHA domain of MKI67)	2	2.82	22.8	12.4	inactive
NIFK (nucleolar protein interacting with the FHA domain of MKI67)	3	4.84	37	20.8	inactive
COBLL1 (cordon-bleu WH2 repeat protein like 1)	1	-0.221	1.41	5.54	inactive
COBLL1 (cordon-bleu WH2 repeat protein like 1)	2	0.516	6.6	6.86	inactive
COBLL1 (cordon-bleu WH2 repeat protein like 1)	3	-0.012	2.88	4.25	inactive
LINC00999 (long independently transcribed non-coding RNA 999)	1	-0.3	0.855	4.1	inactive
LINC00999 (long independently transcribed non-coding RNA 999)	2	-0.788	-2.58	2.27	inactive
LINC00999 (long independently transcribed non-coding RNA 999)	3	0.0086	3.03	4	inactive
TOMM5 (translocase of outer mitochondrial membrane 5)	1	3.05	24.4	12.7	inactive
TOMM5 (translocase of outer mitochondrial membrane 5)	2	-0.661	-1.68	2.85	inactive
TOMM5 (translocase of outer mitochondrial membrane 5)	3	0.191	4.31	6.58	inactive
SLC35B2	1	1.37	12.6	8.89	inactive
SLC35B2	2	0.562	6.92	7.66	inactive
SLC35B2	3	-0.538	-0.818	5.55	inactive
RRAGA (Ras related GTP binding A)	1	-1	-4.07	4.87	inactive
RRAGA (Ras related GTP binding A)	2	-0.401	0.148	3.89	inactive
RRAGA (Ras related GTP binding A)	3	-0.0223	2.81	6.92	inactive
